The target in the assay is T1, PDZD8-3×HA (endogenous PDZD8 of the Pdzd8-3×HA knock-in mouse) (mouse (endogenous in neocortex, knock-in)) (UniProt B9EJ80).
T1 sequence: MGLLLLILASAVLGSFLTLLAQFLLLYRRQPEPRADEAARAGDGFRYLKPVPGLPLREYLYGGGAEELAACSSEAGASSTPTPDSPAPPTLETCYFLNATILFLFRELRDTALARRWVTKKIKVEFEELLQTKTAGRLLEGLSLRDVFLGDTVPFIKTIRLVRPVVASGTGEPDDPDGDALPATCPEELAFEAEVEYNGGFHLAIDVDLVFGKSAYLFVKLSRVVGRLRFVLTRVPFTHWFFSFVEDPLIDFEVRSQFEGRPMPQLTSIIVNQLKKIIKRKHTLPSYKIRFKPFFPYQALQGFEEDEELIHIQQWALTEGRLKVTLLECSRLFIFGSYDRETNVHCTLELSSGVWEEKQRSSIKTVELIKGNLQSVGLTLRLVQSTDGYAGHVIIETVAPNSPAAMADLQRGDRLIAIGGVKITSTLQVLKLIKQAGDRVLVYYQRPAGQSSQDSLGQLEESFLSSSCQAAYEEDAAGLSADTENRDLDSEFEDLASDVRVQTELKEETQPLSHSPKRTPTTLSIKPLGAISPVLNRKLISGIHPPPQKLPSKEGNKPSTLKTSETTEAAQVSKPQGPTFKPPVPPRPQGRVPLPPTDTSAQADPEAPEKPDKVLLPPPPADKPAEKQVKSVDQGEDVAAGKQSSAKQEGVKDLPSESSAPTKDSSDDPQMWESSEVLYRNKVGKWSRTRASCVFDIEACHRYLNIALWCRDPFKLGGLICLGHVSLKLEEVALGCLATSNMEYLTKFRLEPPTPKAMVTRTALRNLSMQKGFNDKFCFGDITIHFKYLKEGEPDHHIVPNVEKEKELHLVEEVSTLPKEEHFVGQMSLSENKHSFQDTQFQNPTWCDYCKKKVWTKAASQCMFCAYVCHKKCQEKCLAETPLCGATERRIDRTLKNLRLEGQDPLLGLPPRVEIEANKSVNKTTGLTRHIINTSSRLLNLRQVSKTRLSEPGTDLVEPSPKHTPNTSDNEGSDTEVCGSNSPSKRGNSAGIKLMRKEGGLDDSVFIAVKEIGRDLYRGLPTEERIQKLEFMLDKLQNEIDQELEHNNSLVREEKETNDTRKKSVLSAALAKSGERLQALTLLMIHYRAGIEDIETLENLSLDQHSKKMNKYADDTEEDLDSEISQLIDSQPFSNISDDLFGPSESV
Kind of assay: affinity purification with mass spectrometry.

These are yes or no findings as the source states them, for the method shown. Binding seen in cells or lysates may run through a third protein. A yes stands for co-enrichment or nearness to the bait. Other partners may have been found. Tags and fused reporters may be left off the sequences shown.

B1: VAPA, endogenous, mouse neocortex (protein, UniProt Q9WV55 1-249)
chain: MASASGAMAKHEQILVLDPPSDLKFKGPFTDVVTTNLKLQNPSDRKVCFKVKTTAPRRYCVRPNSGIIDPGSIVTVSVMLQPFDYDPNEKSKHKFMVQTIFAPPNISDMEAVWKEAKPDELMDSKLRCVFEMPNENDKLNDMEPSKAVPLNASKQDGPLPKPHSVSLNDTETRKLMEECKRLQGEMMKLSEENRHLRDEGLRLRKVAHSDKPGSTSAVSFRDNVTSPLPSLLVVIAAIFIGFFLGKFIL
Take B1: the binding result is listed as “binds”.

Source of the values: publication doi:10.1101/2023.08.22.554218.
